# Binding screen against folded nucleic acids

Targets, with sequences 5′ to 3′:
T1: TPP riboswitch RNA three-way junction, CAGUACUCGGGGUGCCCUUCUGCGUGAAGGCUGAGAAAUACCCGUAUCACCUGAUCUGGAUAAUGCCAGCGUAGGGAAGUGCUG. Hit rate about 0.7% of about 24,000 compounds.
T2: SAM-II riboswitch RNA pseudoknot, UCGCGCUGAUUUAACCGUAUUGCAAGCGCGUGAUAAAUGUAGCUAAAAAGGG. Hit rate about 1% of about 21,000 compounds.
T3: PreQ1 riboswitch RNA pseudoknot, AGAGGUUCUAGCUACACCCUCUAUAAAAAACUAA. From B. subtilis. Hit rate about 0.7% of about 24,000 compounds.

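The test is a small-molecule microarray: each compound is printed twice on a reactive slide, and binding shows as fluorescence of the labelled oligonucleotide after washing. For the PreQ1, TPP and SAM-II riboswitches the laboratory earlier reported (doi:10.1038/s41467-019-09493-3) 1 µM RNA, 2 h, and a rule that included a mean Z-score above 3 (spot signal-to-noise against the whole library), a score well above that on a control array, and duplicate spots agreeing (coefficient of variation under 100). The data file gives only the calls; its cut-offs may differ, and compounds hitting several targets are kept. The calls come from the array alone, and fixing a compound to the slide can hide its binding.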 Key: 1 = hit, 0 = tested without a hit. This is an unselected part of the compounds tested. A dash means that no call is listed here.

SMILES	T1	T2	T3
c1ccc(-n2cccn2)c(Cn2ccnc2-c2cn(C3CCNCC3)nn2)c1	0	0	0
NCCN1C(=O)CC[C@H]2CN(C(=O)c3cccc4cnccc34)CC[C@H]21	0	0	0
Cc1ccc(S(=O)(=O)[C@H]2CS(=O)(=O)C[C@@H]2NCc2cccnc2)cc1	0	-	0
Cc1ccccc1Nc1c(-c2ccncc2)nc2ccc(Br)cn12	0	0	1
FC(F)(F)c1ccccc1Nc1nc(-c2ccccn2)cs1	0	0	0
C[C@]12CCC(=O)C=C1CC[C@@H]1[C@@H]2CC[C@@]2(C)[C@H]1CC[C@]2(C)O	0	0	0
O=c1cc(CO)oc(C(Nc2cccc(F)c2)c2ccccn2)c1O (stereo not shown)	0	0	0
COc1cc2nc(N3CCCN(C)CC3)nc(NC3CCN(Cc4ccccc4)CC3)c2cc1OC	0	0	0
c1ccc(-c2nc3ccccn3c2Nc2ccc3c(c2)OCCO3)cc1	0	0	0
COc1ccccc1N1C(=O)CC(Sc2ccccc2N)C1=O (stereo not shown)	0	0	0
COc1ccc2c(CNCc3ccccc3F)c(C(=O)O)[nH]c2c1	0	-	0
CCC[C@H]1CN(C(=O)CCc2cccnc2)C[C@@H]1N	0	0	0
CC1(C)CC(NC(=O)C(F)(F)F)CC(C)(C)N1.Cl	0	0	0
O=C(NCC1CCOCC1)c1cnc(Nc2ccc(Cl)cc2Cl)nc1C(F)(F)F	0	0	0
CCOc1ccc(Cn2nnc(C(=O)Nc3ccc(Cl)cc3)c2N)cc1	0	0	0
COC(=O)C1=C(C)OC(N)=C(C#N)C1c1ccc(SC)cc1 (stereo not shown)	0	0	0
CCNC(=O)[C@@H]1C[C@H](NC(=O)CO)CN1Cc1c(C)ccc2ncccc12	0	0	0
Cc1cc(C)c(CN2CCOC3(CNCCOC3)C2)c(-n2cccn2)c1 (stereo not shown)	0	0	0
COc1ccc(CNC(=O)c2nccnc2CO)cc1	0	0	0
CC(=O)N[C@@H](CCC(N)=O)c1nc(-c2ccc(F)c(F)c2)nn1CCO	0	0	0

The last 2 entries again:

SMILES,T1,T2,T3
COc1ccc(CNC(=O)c2nccnc2CO)cc1,0,0,0
CC(=O)N[C@@H](CCC(N)=O)c1nc(-c2ccc(F)c(F)c2)nn1CCO,0,0,0

Source: the ROBIN nucleic acid binder screens (doi:10.1002/anie.202211358).